PubChem BioAssay AID686938 | Drosophila RNAi Screening Center, 2013
The deposit covers about 23,000 reagents; below is an unselected part of those that have a named target and a result. Over the whole deposit, 75 (0.33%) got an active call. 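Raw plate signals without normalisation; calls rest on plate z-scores that were not deposited; ratio present for only 364 wells.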 The numbers tell different reagents against one gene apart. No sequences are given here. Not given: the dose of the treatment.

- Test: 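Fly genes required for calcium entry once internal stores are emptied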 (primary screen)
- Cell system: Drosophila S2R+ cells
- Knock-down reagent: long dsRNA against Drosophila genes, about 0.25 µg dsRNA per well, roughly 10,000 cells
- Timing: 5 days of knock-down before the calcium assay
- Conditions: thapsigargin (SERCA pump blocker) to empty calcium stores; entry signal taken 4 min after adding it
- Read-out: 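Duplicate raw fluo-4 intensities per well from a plate reader, at rest and four minutes after thapsigargin emptied calcium stores; entry-to-rest ratio filled for only some wells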
- Scale: calcium entry signal: higher = stronger calcium signal after store depletion; resting calcium signal: higher = higher resting calcium signal
- Units: calcium entry signal in fluorescence units; resting calcium signal in fluorescence units
- Hit rule: 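Called when the plate z-score of the entry-to-rest ratio, mean of duplicates, falls below −3; wells with low overall dye signal (Fmax z below −2) or more than five off-targets excluded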
- Meaning of the calls: active = strongly reduced calcium entry; inactive = no strong reduction

Which result is listed for ps (pasilla) #1?
calcium entry signal, replicate 1: 2.47e7; calcium entry signal, replicate 2: 2.34e7; resting calcium signal, replicate 1: 1.38e7; resting calcium signal, replicate 2: 1.29e7; Outcome: inactive

What is on record for ps (pasilla) #2?
calcium entry signal, replicate 1: 2.60e7; calcium entry signal, replicate 2: 2.71e7; resting calcium signal, replicate 1: 1.36e7; resting calcium signal, replicate 2: 1.47e7; Outcome: inactive

For ps (pasilla) #3, what does the deposit list?
calcium entry signal, replicate 1: 2.50e7; calcium entry signal, replicate 2: 2.27e7; resting calcium signal, replicate 1: 1.54e7; resting calcium signal, replicate 2: 1.31e7; Outcome: inactive

For ps (pasilla) #4, what does the deposit list?
calcium entry signal, replicate 1: 2.83e7; calcium entry signal, replicate 2: 2.11e7; resting calcium signal, replicate 1: 1.82e7; resting calcium signal, replicate 2: 1.22e7; Outcome: inactive

What did the screen give for ps (pasilla) #5?
calcium entry signal, replicate 1: 4.70e7; calcium entry signal, replicate 2: 3.58e7; resting calcium signal, replicate 1: 2.55e7; resting calcium signal, replicate 2: 1.68e7; Outcome: inactive

With CG7029, how do the results read?
calcium entry signal, replicate 1: 4.41e7; calcium entry signal, replicate 2: 3.91e7; resting calcium signal, replicate 1: 1.81e7; resting calcium signal, replicate 2: 1.58e7; Outcome: inactive

How did the screen score Zip71B (Zinc/iron regulated transporter-related protein 71B)?
calcium entry signal, replicate 1: 4.19e7; calcium entry signal, replicate 2: 5.39e7; resting calcium signal, replicate 1: 1.85e7; resting calcium signal, replicate 2: 2.03e7; Outcome: inactive

How did the screen score Ctr1C (Copper transporter 1C)?
calcium entry signal, replicate 1: 3.70e7; calcium entry signal, replicate 2: 6.37e7; resting calcium signal, replicate 1: 2.00e7; resting calcium signal, replicate 2: 2.84e7; Outcome: inactive

Which result is listed for beat-IIb (beaten path IIb) #1?
calcium entry signal, replicate 1: 9.17e7; calcium entry signal, replicate 2: 2.36e7; resting calcium signal, replicate 1: 3.67e7; resting calcium signal, replicate 2: 1.20e7; Outcome: inactive

What did the screen give for beat-IIb (beaten path IIb) #2?
calcium entry signal, replicate 1: 3.88e7; calcium entry signal, replicate 2: 5.65e7; resting calcium signal, replicate 1: 1.76e7; resting calcium signal, replicate 2: 6.39e7; Outcome: inactive

What did the screen give for beat-IIb (beaten path IIb) #3?
calcium entry signal, replicate 1: 3.95e7; calcium entry signal, replicate 2: 4.76e7; resting calcium signal, replicate 1: 1.85e7; resting calcium signal, replicate 2: 6.59e7; Outcome: inactive

With verm (vermiform), how do the results read?
calcium entry signal, replicate 1: 3.70e7; calcium entry signal, replicate 2: 3.64e7; resting calcium signal, replicate 1: 1.74e7; resting calcium signal, replicate 2: 2.48e7; Outcome: inactive

2 entries already listed, sorted by “calcium entry signal, replicate 2”, highest first.
beat-IIb (beaten path IIb) #3 → calcium entry signal, replicate 1 = 3.95e7; calcium entry signal, replicate 2 = 4.76e7; resting calcium signal, replicate 1 = 1.85e7; resting calcium signal, replicate 2 = 6.59e7; Outcome = inactive
verm (vermiform) → calcium entry signal, replicate 1 = 3.70e7; calcium entry signal, replicate 2 = 3.64e7; resting calcium signal, replicate 1 = 1.74e7; resting calcium signal, replicate 2 = 2.48e7; Outcome = inactive
